Literature values as cited in patent publication US20090105632A1 (priority 2007, published 2009).

Test system: Parkinson's disease
Conditions: coadministration with levodopa

CCN(CC)C(=O)N[C@H]1C=C2c3cccc4[nH]cc(c34)C[C@H]2N(C)C1 [lisuride, N′-[(8α)-9,10-didehydro-6-methylergolin-8-yl]-N,N-diethylurea]
reduction of levodopa dosage with the administration of lisuride: 25%
